Laboratory results: PubChem BioAssay AID743121 (NCATS, 2013)
Assay: 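Genes whose silencing strengthens cell killing by camptothecin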 (primary screen). System: MDA-MB-231 cells, a human breast cancer line. Reagent: single siRNA against human genes, 20 nM siRNA (0.8 pmol per well). Time to read-out: 120 h (drug added 48 h after transfection, read 72 h later). Conditions: camptothecin 20 nM (about EC30) for 72 h; vehicle 0.1% DMSO in parallel plates. Read-out: 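CellTiter-Glo ATP signal, scaled to control siRNA as percent viability; sensitisation given as log2 of untreated divided by camptothecin-treated viability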. Scale: log2 vehicle/camptothecin viability: higher = stronger sensitisation to camptothecin; viability with camptothecin and viability without drug: higher = more viable cells. Rule for the call: 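Each gene scored by redundant siRNA activity (RSA) over its individual siRNA ratios; a gene is called active at p < 0.001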.
In all, the deposit lists about 26,000 reagents; this is a random part of them. 167 of them (0.63%) count as active. 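Calls are per gene from RSA p-values that are not deposited; an individual active-marked siRNA can sensitise only weakly.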 Reagents against one gene are numbered here.

gene | siRNA no. | log2 vehicle/camptothecin viability | viability with camptothecin (% of control) | viability without drug (% of control) | activity call
OAS2 | 1 | 0.796 | 34.9 | 60.6 | inactive
OAS2 | 2 | 0.0329 | 111 | 113 | inactive
OAS2 | 3 | 0.0287 | 59.2 | 60.4 | inactive
OAS2 | 4 | -0.139 | 40.8 | 37.1 | inactive
CASR | 1 | -0.0648 | 98.4 | 94.1 | inactive
CASR | 2 | -0.135 | 53.5 | 48.8 | inactive
CASR | 3 | 1.23 | 44.5 | 104 | inactive
CASR | 4 | -0.086 | 102 | 95.9 | inactive
RIOX2 | 1 | -0.558 | 47.8 | 32.4 | inactive
RIOX2 | 2 | -0.239 | 73.8 | 62.6 | inactive
RIOX2 | 3 | -0.134 | 85.5 | 77.9 | inactive
RIOX2 | 4 | 0.0831 | 90.1 | 95.5 | inactive
CDC27 | 1 | -0.953 | 67.2 | 34.7 | inactive
CDC27 | 2 | -1.21 | 57.2 | 24.7 | inactive
CDC27 | 3 | -0.521 | 74.3 | 51.8 | inactive
CDC27 | 4 | -0.0159 | 88.4 | 87.5 | inactive
DGKI | 1 | 0.0475 | 85.1 | 88 | inactive
DGKI | 2 | -0.101 | 45.1 | 42 | inactive
DGKI | 3 | 0.109 | 55.5 | 59.9 | inactive
DGKI | 4 | -0.00285 | 57.7 | 57.6 | inactive
ANGPTL5 | 1 | -0.0843 | 55.3 | 52.1 | inactive
ANGPTL5 | 2 | -0.124 | 70.7 | 64.9 | inactive
ANGPTL5 | 3 | -0.27 | 78.6 | 65.2 | inactive
BDKRB1 | 1 | -0.22 | 86.3 | 74.2 | inactive
BDKRB1 | 2 | 0.185 | 59.3 | 67.3 | inactive
BDKRB1 | 3 | -0.444 | 65.5 | 48.2 | inactive
BDKRB1 | 4 | 0.77 | 12.3 | 20.9 | inactive
TLK2 | 1 | -0.346 | 115 | 90.2 | inactive
TLK2 | 2 | -0.000368 | 79.1 | 79.1 | inactive
TLK2 | 3 | -0.184 | 91.3 | 80.3 | inactive
TLK2 | 4 | 0.022 | 71.7 | 72.8 | inactive
BNIP1 | 1 | 0.135 | 54 | 59.2 | inactive
BNIP1 | 2 | 0.228 | 31.6 | 37 | inactive
BNIP1 | 3 | -0.318 | 104 | 83.5 | inactive
BNIP1 | 4 | -0.279 | 62.7 | 51.7 | inactive
DHRS7 | 1 | 0.259 | 87.4 | 105 | inactive
DHRS7 | 2 | -0.763 | 109 | 64.4 | inactive
DHRS7 | 3 | -0.279 | 75.2 | 62 | inactive
OR10H3 | 1 | 0.225 | 89.5 | 105 | inactive
OR10H3 | 2 | -0.293 | 79.5 | 64.9 | inactive
OR10H3 | 3 | 0.0323 | 108 | 111 | inactive
OR10H3 | 4 | -0.341 | 103 | 81.1 | inactive
EDNRB | 1 | -0.174 | 111 | 98.6 | inactive
EDNRB | 2 | -0.318 | 54.7 | 43.8 | inactive
EDNRB | 3 | -0.112 | 97.5 | 90.2 | inactive
EDNRB | 4 | 0.0449 | 107 | 110 | inactive
